Test results reported in publication PMC6021382.
These are yes or no findings as the source states them, for the method shown. Binding seen in cells or lysates may run through a third protein. Some binding calls cover weakened binding; strength is not graded here. Sequences can lack the tags named with a protein.

T1: Flag-Smad6-NLS (nuclear-forced full-length human Smad6) (human) (UniProt O43541)
T1 sequence: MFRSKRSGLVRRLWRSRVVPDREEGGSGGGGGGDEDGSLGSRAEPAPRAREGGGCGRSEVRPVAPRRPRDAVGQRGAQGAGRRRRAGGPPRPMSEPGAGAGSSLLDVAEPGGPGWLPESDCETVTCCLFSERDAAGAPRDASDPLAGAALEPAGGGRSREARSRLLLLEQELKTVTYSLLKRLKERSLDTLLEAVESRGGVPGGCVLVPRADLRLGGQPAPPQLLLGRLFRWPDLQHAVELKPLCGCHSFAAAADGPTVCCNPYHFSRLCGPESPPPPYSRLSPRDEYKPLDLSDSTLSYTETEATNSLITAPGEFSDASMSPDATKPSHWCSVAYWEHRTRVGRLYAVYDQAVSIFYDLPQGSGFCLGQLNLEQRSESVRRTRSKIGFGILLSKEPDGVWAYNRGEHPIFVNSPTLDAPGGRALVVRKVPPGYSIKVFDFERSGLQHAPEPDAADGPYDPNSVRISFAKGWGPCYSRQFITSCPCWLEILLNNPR

T2: His-MH2-NLS (Smad6 MH2 domain construct) (human) (UniProt O43541)
T2 sequence: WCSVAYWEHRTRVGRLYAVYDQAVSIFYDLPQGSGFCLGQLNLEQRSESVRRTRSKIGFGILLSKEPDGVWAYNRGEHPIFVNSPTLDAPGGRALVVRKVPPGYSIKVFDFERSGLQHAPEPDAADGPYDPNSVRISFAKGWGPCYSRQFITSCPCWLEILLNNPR

T3: GST-Smad6 fusion protein (human) (UniProt O43541)
T3 sequence: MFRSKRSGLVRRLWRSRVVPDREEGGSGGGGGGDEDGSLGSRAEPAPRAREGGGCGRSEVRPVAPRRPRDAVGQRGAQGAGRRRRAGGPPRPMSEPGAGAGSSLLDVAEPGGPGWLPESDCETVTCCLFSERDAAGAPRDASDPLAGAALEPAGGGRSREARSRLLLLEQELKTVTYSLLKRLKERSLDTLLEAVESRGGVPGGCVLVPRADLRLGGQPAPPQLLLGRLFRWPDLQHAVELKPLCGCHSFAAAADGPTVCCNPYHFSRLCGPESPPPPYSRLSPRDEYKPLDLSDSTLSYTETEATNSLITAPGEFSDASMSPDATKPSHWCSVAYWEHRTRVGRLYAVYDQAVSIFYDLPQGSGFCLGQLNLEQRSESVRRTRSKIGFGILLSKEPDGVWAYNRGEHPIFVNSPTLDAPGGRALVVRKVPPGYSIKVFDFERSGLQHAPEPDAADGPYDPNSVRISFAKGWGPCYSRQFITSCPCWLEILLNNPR

T4: HA-PIAS3 (full-length human PIAS3) (human) (UniProt Q9Y6X2)
T4 sequence: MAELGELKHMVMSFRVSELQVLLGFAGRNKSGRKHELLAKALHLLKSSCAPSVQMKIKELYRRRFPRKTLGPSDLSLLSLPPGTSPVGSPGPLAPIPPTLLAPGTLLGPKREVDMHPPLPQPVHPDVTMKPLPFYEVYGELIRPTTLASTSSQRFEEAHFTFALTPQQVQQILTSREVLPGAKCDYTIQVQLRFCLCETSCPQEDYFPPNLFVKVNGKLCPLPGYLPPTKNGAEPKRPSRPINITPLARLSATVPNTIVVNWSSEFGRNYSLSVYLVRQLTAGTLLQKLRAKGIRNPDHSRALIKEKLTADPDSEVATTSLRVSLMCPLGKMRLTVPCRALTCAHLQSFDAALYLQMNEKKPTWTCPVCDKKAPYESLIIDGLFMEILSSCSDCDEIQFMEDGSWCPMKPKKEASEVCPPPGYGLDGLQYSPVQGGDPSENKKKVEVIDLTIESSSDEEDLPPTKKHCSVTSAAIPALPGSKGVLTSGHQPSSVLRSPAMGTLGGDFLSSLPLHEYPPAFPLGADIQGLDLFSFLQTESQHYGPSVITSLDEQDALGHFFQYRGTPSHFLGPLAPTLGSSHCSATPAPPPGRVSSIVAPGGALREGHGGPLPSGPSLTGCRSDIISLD


Columns and labels:
[1] = molecular target: T1, Flag-Smad6-NLS (nuclear-forced full-length human Smad6) (human); test: co-IP; 293T cells transiently transfected with expression plasmids for 48 h; lysates in RIPA buffer; IP with the indicated antibodies (anti-Flag, anti-HA), western blot
[2] = molecular target: T2, His-MH2-NLS (Smad6 MH2 domain construct) (human); test: as above
[3] = molecular target: TAT-MH2-NLS (cell-penetrating Smad6 MH2 protein) (human | HIV) (UniProt O43541); test: co-IP; 293T cells transfected with HA-PIAS3 and treated with 1.0 ug/ml purified TAT-MH2-NLS; IP with anti-His antibody; only the target purified
[4] = molecular target: T3, GST-Smad6 fusion protein (human); test: pull-down; GST fusion protein bound to glutathione-agarose beads, incubated 2 h with total lysate of transfected 293T cells; washed three times with GST lysis buffer; western blot; only the target purified
[5] = molecular target: T4, HA-PIAS3 (full-length human PIAS3) (human); test: co-IP; 293T cells transiently transfected with expression plasmids for 48 h; lysates in RIPA buffer; IP with the indicated antibodies (anti-Flag, anti-HA), western blot

Binder	binding [1]	binding [5]	also measured
HA-Ring-NLS (PIAS3 Ring domain construct) (domain or fragment, UniProt Q9Y6X2 303-380) LIKEKLTADPDSEVATTSLRVSLMCPLGKMRLTVPCRALTCAHLQSFDAALYLQMNEKKPTWTCPVCDKKAPYESLII	binds		binding [2]: binds
HA-PIAS3 (full-length human PIAS3) (protein, UniProt Q9Y6X2 1-628) MAELGELKHMVMSFRVSELQVLLGFAGRNKSGRKHELLAKALHLLKSSCAPSVQMKIKELYRRRFPRKTLGPSDLSLLSLPPGTSPVGSPGPLAPIPPTLLAPGTLLGPKREVDMHPPLPQPVHPDVTMKPLPFYEVYGELIRPTTLASTSSQRFEEAHFTFALTPQQVQQILTSREVLPGAKCDYTIQVQLRFCLCETSCPQEDYFPPNLFVKVNGKLCPLPGYLPPTKNGAEPKRPSRPINITPLARLSATVPNTIVVNWSSEFGRNYSLSVYLVRQLTAGTLLQKLRAKGIRNPDHSRALIKEKLTADPDSEVATTSLRVSLMCPLGKMRLTVPCRALTCAHLQSFDAALYLQMNEKKPTWTCPVCDKKAPYESLIIDGLFMEILSSCSDCDEIQFMEDGSWCPMKPKKEASEVCPPPGYGLDGLQYSPVQGGDPSENKKKVEVIDLTIESSSDEEDLPPTKKHCSVTSAAIPALPGSKGVLTSGHQPSSVLRSPAMGTLGGDFLSSLPLHEYPPAFPLGADIQGLDLFSFLQTESQHYGPSVITSLDEQDALGHFFQYRGTPSHFLGPLAPTLGSSHCSATPAPPPGRVSSIVAPGGALREGHGGPLPSGPSLTGCRSDIISLD	binds		binding [3]: binds; binding [4]: binds
Flag-tagged nuclear Smad6 with Linker domain deletion (dLinker, residues 1-181 ~ 332-496) (domain or fragment, UniProt O43541) MFRSKRSGLVRRLWRSRVVPDREEGGSGGGGGGDEDGSLGSRAEPAPRAREGGGCGRSEVRPVAPRRPRDAVGQRGAQGAGRRRRAGGPPRPMSEPGAGAGSSLLDVAEPGGPGWLPESDCETVTCCLFSERDAAGAPRDASDPLAGAALEPAGGGRSREARSRLLLLEQELKTVTYSLLKCSVAYWEHRTRVGRLYAVYDQAVSIFYDLPQGSGFCLGQLNLEQRSESVRRTRSKIGFGILLSKEPDGVWAYNRGEHPIFVNSPTLDAPGGRALVVRKVPPGYSIKVFDFERSGLQHAPEPDAADGPYDPNSVRISFAKGWGPCYSRQFITSCPCWLEILLNNPR		binds	
Flag-tagged nuclear Smad6 with MH2 deletion (dMH2, residues 1-331) (domain or fragment, UniProt O43541 1-331) MFRSKRSGLVRRLWRSRVVPDREEGGSGGGGGGDEDGSLGSRAEPAPRAREGGGCGRSEVRPVAPRRPRDAVGQRGAQGAGRRRRAGGPPRPMSEPGAGAGSSLLDVAEPGGPGWLPESDCETVTCCLFSERDAAGAPRDASDPLAGAALEPAGGGRSREARSRLLLLEQELKTVTYSLLKRLKERSLDTLLEAVESRGGVPGGCVLVPRADLRLGGQPAPPQLLLGRLFRWPDLQHAVELKPLCGCHSFAAAADGPTVCCNPYHFSRLCGPESPPPPYSRLSPRDEYKPLDLSDSTLSYTETEATNSLITAPGEFSDASMSPDATKPSHW		no binding	
Flag-tagged nuclear Smad6 with MH1 deletion (dMH1, residues 182-496) (domain or fragment, UniProt O43541 182-496) RLKERSLDTLLEAVESRGGVPGGCVLVPRADLRLGGQPAPPQLLLGRLFRWPDLQHAVELKPLCGCHSFAAAADGPTVCCNPYHFSRLCGPESPPPPYSRLSPRDEYKPLDLSDSTLSYTETEATNSLITAPGEFSDASMSPDATKPSHWCSVAYWEHRTRVGRLYAVYDQAVSIFYDLPQGSGFCLGQLNLEQRSESVRRTRSKIGFGILLSKEPDGVWAYNRGEHPIFVNSPTLDAPGGRALVVRKVPPGYSIKVFDFERSGLQHAPEPDAADGPYDPNSVRISFAKGWGPCYSRQFITSCPCWLEILLNNPR		binds	
